Experimental data: US20220411397A1, “ANALOGUES OF N-ACYL-HOMOSERINE LACTONES AND PHARMACEUTICAL COMPOSITION COMPRISING SAME” (SORBONNE UNIVERSITE, priority 2019, published 2022)
Some results were stated once for a whole list of compounds, not compound by compound.

Columns and labels:
Raw264.7 murine cells = assay: Cytotoxicity test, LDH secretion, Raw264.7; assay type: cell-based; settings: for cytotoxicity (LDH): Raw264.7, at 100 μM, basal and stimulated
Description: (§1) 1.2.6. […] To measure the concentration of LDH in the cell lysate, 800 μL of NADH was added to 10 μL of […] and 190 μL of 0.1 M PBS in a plastic cuvette, and the decrease in the absorbance at 340 nm was monitored for 1 min. […] The percentage of cytotoxicity could be established with the formula: […]
(§2) The cytotoxicity of the tested and control compounds was evaluated using a measurement test of the LDH (Lactate Dehydrogenase) secretion. This test is based on the measurement of the amount of LDH secreted by the cells in their supernatant, compared to the amount of LDH that will remain in the intracellular compartment. This ratio provides an indication of the membrane damage suffered by the cells, and thus of the cytotoxicity of the compound.
Two methods were used to perform this test: the measurement using an extemporaneously prepared pyruvate/NADH solution, or using the Cytotoxicity Detection Kit^PLUS(LDH) from the manufacturer Roche (Sigma-Aldrich).
Pyruvate/NADH method: pyruvate/NADH solution prepared with 4.1 mg pyruvic acid (0.62 mM) and 7.7 mg NADH (0.18 mM) in 60 ml of 0.1M PBS (pH 7.4).
(§3) For the measurement of the LDH concentration in the supernatants, 800 μL of NADH was added to 200 μL of supernatant in plastic spectrometry cuvettes, and the decrease in absorbance of the final solution was read at 340 nm for 1 min. For the measurement of the LDH concentration in the cell lysates, 800 μL of NADH was added to 10 μL of cell lysates and 190 μL of 0.1M PBS in plastic spectrometry cuvettes, and the decrease in absorbance of the final solution was read at 340 nm for 1 min. The percentage of LDH secreted was then calculated by the ratio of the decay slopes of the absorbance of the supernatants and of the cell lysates (respectively).
Cytotoxicity Detection Kit^PLUS (LDH) method: absorbance test performed according to the manufacturer's instructions. The percentage of LDH secreted was then calculated by the formula: […]

Caco-2/TC7 cells = assay: Cytotoxicity test, LDH secretion, Caco-2/TC7; assay type: cell-based; settings: Caco-2/TC7, stimulated; even at the highest concentrations
Description: as §1
as §2, with “This ratio provides an indication of the membrane damage suffered by the cells, and thus of the cytotoxicity of the compound.” left out
as §3
Cytotoxicity Detection Kit^PLUS (LDH) method: absorbance test performed according to the manufacturer's instructions. […]

CC/C=C\C/C=C\CCC(=O)CC(=O)N[C@H]1CCOC1=O [3-oxo-C12:2-HSL, reference compound] was tested, and the “cytotoxicity (LDH)” value (Raw264.7 murine cells) was “greater than 10%”.

In the case of CCCCCCCCCC(=O)CC(=O)N[C@H]1CCOC1=O [3-oxo-C12-HSL, N-(3(S)-oxododecanoyl) homoserine lactone, reference compound], the “cytotoxicity (LDH)” value (Raw264.7 murine cells) is reported as “greater than 10%”.

With CCCCCCCCCC(=O)CC(=O)N[C@H]1CCSC1=O [I-3, 3-oxo N-[(3S)-tetrahydro-2-oxo-3-thienyl]-dodecanamide] the LDH secretion (Caco-2/TC7 cells) was “below 10%” and the LDH secretion (Raw264.7 murine cells; Raw264.7, stimulated, even at the highest concentrations) was “below 10%”.
